From patent publication EP0482605A2, “HTLV-II derived peptide” (Kuraray Co., Ltd., priority 1990, dated 1992)
Not every detail of the peptide structures is certain; ends, links or a residue may be inferred. Ends that are not written are not given here.

Assays:
anti-HTLV-I antibody = experiment: ELISA with peptide-coated cups, sera from HTLV-I carriers; assay type: binding; settings: sera from HTLV-I carriers (15 specimens); positive/tested; cut-off = mean OD492 of normal human serum + 2SD
anti-HTLV-II antibody = experiment: ELISA with peptide-coated cups, sera from HTLV-II carriers; assay type: binding; settings: sera from HTLV-II carriers (9 specimens); positive/tested; cut-off = mean OD492 of normal human serum + 2SD

PPPPSSPTHDPPDSDPQIPPPYVEPTAPQVL [Reference Example 2]
subject sera judged to be positive (anti-HTLV-I antibody): 15/15
subject sera judged to be positive (anti-HTLV-II antibody): 1/9
